Values quoted from earlier work as cited in patent publication US12624122B2, “Affinity maturated TAG72 specific single chain antibodies” (H. Lee Moffitt Cancer Center and Research Institute, Inc., priority 2016, dated 2026).
Some results were stated once for a whole list of compounds, not compound by compound. For at least one compound, name, drawing or mass did not settle the structure. Non-standard residues stand in square brackets, D forms with d. Residues, ends and D or L forms follow the SMILES beside them. *: point of attachment. Dolaproine = CO[C@@H]([C@@H]1CCCN1)[C@@H](C)C(=O)O; Dil = CC[C@H](C)[C@H](NC)[C@@H](CC(=O)O)OC; X1 = C[C@@H](N*)[C@@H](O)c1ccccc1; NMeV = CN[C@H](C(=O)O)C(C)C

Conditions: free cytotoxic payload of ADC; read-out: free drug IC50; cited from earlier work

Structure (SMILES)	IC50 [nM]
COc1cc2cc(c1Cl)N(C)C(=O)C[C@H](OC(=O)[C@H](C)N(C)C(=O)CCS)[C@]1(C)O[C@H]1[C@H](C)[C@@H]1C[C@@](O)(NC(=O)O1)[C@H](OC)/C=C/C=C(\C)C2 [DM1]	0.01 to 1
CC[C@H](C)[C@@H]([C@@H](CC(=O)N1CCC[C@H]1[C@H](OC)[C@@H](C)C(=O)N[C@H](C)[C@@H](O)c1ccccc1)OC)N(C)C(=O)[C@@H](NC(=O)[C@@H](NC)C(C)C)C(C)C [Monomethyl auristatin E] (H-[NMeV]V[Dil][Dolaproine]-X1)	0.01 to 1
